For some of these results: For expression read-outs the peptide stands for its source gene, whose mRNA was measured; the gene is not named for every peptide.
Assays:
Design in all cases: species or system human
[1] = Identification and label-free relative LC-MS quantitation of HLA-presented peptides on tumor and normal tissue samples (XPRESIDENT presentation profiles); conditions: for Entities of particular interest: entities where the peptide was over-presented on cancer samples compared to normal tissues; for Additional entities of particular interest (presentation of selected peptides across entities): tumor entities on which the HLA-presented peptide was found, entity abbreviations defined in the title of Table 4B
[2] = system: source genes of the peptides (mRNA) in tumor and normal tissue; assay: Expression profiling of source genes by Affymetrix microarrays (target coverage); conditions: over-expression = more than 1.5-fold higher expression on tumor vs. normal tissue with highest expression, gene with minimal coverage decisive; for Target coverage for source genes of selected peptides, BPHI/PCA (%): BPHI/PCA (prostate cancer) samples; for Target coverage for source genes of selected peptides, CRC (%): CRC tumor samples; for Target coverage for source genes of selected peptides, GB (%): GB tumor samples; for Target coverage for source genes of selected peptides, GC (%): GC tumor samples; for Target coverage for source genes of selected peptides, HCC (%): HCC tumor samples; for Target coverage for source genes of selected peptides, NSCLC (%): NSCLC tumor samples; for Target coverage for source genes of selected peptides, PC (%): PC tumor samples; for Target coverage for source genes of selected peptides, RCC (%): RCC tumor samples
[3] = system: source genes of the peptides (mRNA) in tumor and normal tissue; assay: Expression profiling of source genes by RNAseq (target coverage); conditions: share of tumors with more than 1.5-fold over-expression vs highest-expressing relevant normal tissue; for Target coverage for source genes, AML (%): acute myeloid leukemia; for Target coverage for source genes, BRCA (%): breast cancer; for Target coverage for source genes, CLL (%): chronic leukemia (CLL); for Target coverage for source genes, OSCAR (%): esophageal cancer incl. gastric-oesophageal junction; for Target coverage for source genes, MEL (%): melanoma; for Target coverage for source genes, OC (%): ovarian cancer; for Target coverage for source genes, SCLC (%): small cell lung cancer; for Target coverage for source genes, UBC (%): urinary bladder cancer; for Target coverage for source genes, UTC (%): uterine cancer; for Target coverage for source genes, GBC_CCC (%): gallbladder adenocarcinoma and cholangiocarcinoma; for Target coverage for source genes, NHL (%): non-Hodgkin lymphoma

Substance | Entities of particular interest [1] | Additional entities of particular interest (presentation of selected peptides across entities) [1] | Target coverage for source genes, AML (%) [3] | Target coverage for source genes, BRCA (%) [3] | Target coverage for source genes, CLL (%) [3] | Target coverage for source genes, OSCAR (%) [3] | Target coverage for source genes, MEL (%) [3] | Target coverage for source genes, OC (%) [3] | Target coverage for source genes, SCLC (%) [3] | Target coverage for source genes, UBC (%) [3] | Target coverage for source genes, UTC (%) [3] | Target coverage for source genes, GBC_CCC (%) [3] | Target coverage for source genes, NHL (%) [3] | also measured
39: peptide found in PRIM2 (gene looked up) (YLEDGFAYV; listed as Homo sapiens) [compound 39] | GB, NSCLC, HCC, PC | CLL, UBC, UTC, MEL, NHL | I (<19% over-expression = I) | II (20-49% = II) | I (<19% over-expression = I) | I (<19% over-expression = I) | II (20-49% = II) | III (50-69% = III) | III (50-69% = III) | I (<19% over-expression = I) | I (<19% over-expression = I) |  |  | Target coverage for source genes of selected peptides, BPHI/PCA (%) [2]: IV (>70% = IV); Target coverage for source genes of selected peptides, CRC (%) [2]: IV (>70% = IV); Target coverage for source genes of selected peptides, GB (%) [2]: II (20-49% = II); Target coverage for source genes of selected peptides, GC (%) [2]: IV (>70% = IV); Target coverage for source genes of selected peptides, HCC (%) [2]: I (<19% over-expression = I); Target coverage for source genes of selected peptides, NSCLC (%) [2]: III (50-69% = III); Target coverage for source genes of selected peptides, PC (%) [2]: II (20-49% = II); Target coverage for source genes of selected peptides, RCC (%) [2]: I (<19% over-expression = I)
248: peptide found in CDK1 (gene looked up) (VLMQDSRLYL; listed as Homo sapiens) [compound 248] | NSCLC, CRC, PC | CLL, UBC, UTC, AML, NHL | I (<19% over-expression = I) | I (<19% over-expression = I) | I (<19% over-expression = I) | I (<19% over-expression = I) | I (<19% over-expression = I) | I (<19% over-expression = I) | I (<19% over-expression = I) | I (<19% over-expression = I) | I (<19% over-expression = I) | I (<19% over-expression = I) | II (20-49% = II) | Target coverage for source genes of selected peptides, BPHI/PCA (%) [2]: I (<19% over-expression = I); Target coverage for source genes of selected peptides, CRC (%) [2]: IV (>70% = IV); Target coverage for source genes of selected peptides, GB (%) [2]: IV (>70% = IV); Target coverage for source genes of selected peptides, GC (%) [2]: IV (>70% = IV); Target coverage for source genes of selected peptides, HCC (%) [2]: II (20-49% = II); Target coverage for source genes of selected peptides, NSCLC (%) [2]: IV (>70% = IV); Target coverage for source genes of selected peptides, PC (%) [2]: III (50-69% = III); Target coverage for source genes of selected peptides, RCC (%) [2]: II (20-49% = II)
169: peptide found in HTR7 (gene looked up) (ALADLSVAV; listed as Homo sapiens) [compound 169] |  | NSCLC, HCC, OSCAR, OC, UBC, UTC, GBC_CCC, MEL, AML | I (<19% over-expression = I) | I (<19% over-expression = I) | I (<19% over-expression = I) | II (20-49% = II) | I (<19% over-expression = I) | I (<19% over-expression = I) | I (<19% over-expression = I) | III (50-69% = III) | I (<19% over-expression = I) | I (<19% over-expression = I) | I (<19% over-expression = I) | 
148: peptide found in CNR2 (gene looked up) (YLILSSHQL; listed as Homo sapiens) [compound 148] |  | CLL, NHL | I (<19% over-expression = I) | I (<19% over-expression = I) | IV (>70% = IV) | I (<19% over-expression = I) | I (<19% over-expression = I) | I (<19% over-expression = I) | I (<19% over-expression = I) | I (<19% over-expression = I) | I (<19% over-expression = I) | I (<19% over-expression = I) | III (50-69% = III) | 
235: peptide found in CLSPN (gene looked up) (SLLNQPKAV; listed as Homo sapiens) [compound 235] | GB, NSCLC, HCC, OC, MEL, CRC, PC, OSCAR | SCLC, UBC, UTC, BRCA, GBC_CCC, AML, NHL | I (<19% over-expression = I) | I (<19% over-expression = I) | I (<19% over-expression = I) | I (<19% over-expression = I) | I (<19% over-expression = I) | II (20-49% = II) | II (20-49% = II) | I (<19% over-expression = I) | I (<19% over-expression = I) | I (<19% over-expression = I) | I (<19% over-expression = I) | 
43: peptide found in CCR8 (gene looked up) (LLIPFTIFM; listed as Homo sapiens) [compound 43] | NSCLC, MEL, CRC, OC | SCLC, GBC_CCC, NHL | I (<19% over-expression = I) | II (20-49% = II) | I (<19% over-expression = I) | IV (>70% = IV) | II (20-49% = II) | I (<19% over-expression = I) | I (<19% over-expression = I) | II (20-49% = II) | I (<19% over-expression = I) |  |  | 
156: peptide found in CYSLTR1 (gene looked up) (VILTSSPFL; listed as Homo sapiens) [compound 156] |  | CLL, BRCA, AML, NHL | I (<19% over-expression = I) | I (<19% over-expression = I) | II (20-49% = II) | I (<19% over-expression = I) | I (<19% over-expression = I) | I (<19% over-expression = I) | I (<19% over-expression = I) | I (<19% over-expression = I) | I (<19% over-expression = I) | I (<19% over-expression = I) | I (<19% over-expression = I) | 

From patent US20160279215A1, “NOVEL PEPTIDES AND COMBINATION OF PEPTIDES FOR USE IN IMMUNOTHERAPY AGAINST VARIOUS TUMORS” (immatics biotechnologies GmbH, priority 2015, published 2016)
